Measurements published in paper PMC12818720 (ACS Applied Materials & Interfaces, 2025).
HELM strings list residues between dots; [ac] is acetyl, [am] amide, other brackets name non-standard units.

Assay: general procedure: Fmoc solid-phase peptide synthesis; Wang resin preloaded with the first amino acid (Fmoc-Lys(Boc)-Wang or Fmoc-Asp(OtBu)-Wang, Novabiochem); HBTU/DIEA
Conditions: whole synthesis

Row | Substance | final HPLC purity [%]
1 | PEPTIDE1{F.F.F.F.D}$$$$V2.0 | 98.3
2 | F 4D-GHK | 99.6
3 | F 4D-KHG | 96.8
